Test results as given in patent publication US20210009993A1 (ROCHE DIAGNOSTICS OPERATIONS, published 2021).
Residue numbers refer to the chain shown, from its start. Names may count otherwise. These are yes or no findings as the source states them, for the method shown. Some results given as binding are weak or reduced against the parent protein; the word gives no strength. Values belong to the binder of their own block, whether it stands above or below them.

Columns and labels:
[1] = target: T1, human cardiac troponin T (cTnT) (human, UniProt P45379 2-298); experiment: Elecsys ECL sandwich immunoassay; ruthenylated IgG as detection antibody, Calibrator 1 against blank
T1 construct: also called Recombinant human TnT (Roche, 37 kDa)

[2] = target: T1, human cardiac troponin T (cTnT); experiment: Elecsys ECL sandwich immunoassay; ruthenylated IgG as detection antibody, cTnT calibrators against blank
[3] = target: T1, human cardiac troponin T (cTnT); experiment: Elecsys sandwich ECL immunoassay (Troponin T hs protocol, Cobas E170). Ruthenylated IgG is the detection antibody, with a biotinylated capture antibody on streptavidin beads. Calibrator 1 of the cTnT assay against a Diluent Multi Assay blank.
[4] = target: T1, human cardiac troponin T (cTnT); experiment: SPR (Biacore), Table 3

binding [1]: binds
binding [2]: binds
binding [3]: binds
B1: full length murine/human chimeric anti-cTnT antibody comprising the mutations of combination 12 (Y34I, F60W, Y104F), ruthenium conjugate (antibody, V domains shown)
VH: EVQLQQSGPELVKPGASVKMSCKASGYTFTDYIMKWVKQSHGKSLEWIGDINPNNGETWYNQKFKDKATLTVDKSSSTAYMQLNSLTSEDSAVYYCATRVFDFWGQGTTLTVSS
VL: DIVLTQSPASLAVSLGQRATISCKASQSVDYDGTSYMNWFQQKAGQPPKRLIYAASNLESGIPARFSGRGSGTDFALNIHPVEEEDAATYYCQQSNEDPYTFGGGTKLEIKR

binding [2]: binds
B2: full length murine/human chimeric anti-cTnT antibody comprising the mutations of combination 11 (Y34I, F60W, V101Y), ruthenium conjugate (antibody, V domains shown)
VH: B1 VH with V100Y, F103Y
VL: B1 VL

binding [4]: binds
B3: anti-cTnT Fab fragment, CDR combination 12 (Y34I, F60W, Y104F) (Fab, V domains shown)
VH: B1 VH
VL: B1 VL
